# Measured values published in the supplement of paper PMC8728848.
# This is one part of the list.
# B1: AT1G77380(17) (Arabidopsis thaliana), Q39134 (protein)
# chain: MVQNHQTVLAVDMPQTGGSKYLDDDGKNKRTGSVWTASAHIITAVIGSGVLSLAWATAQLGWLAGPVVMLLFSAVTYFTSSLLAACYRSGDPISGKRNYTYMDAVRSNLGGVKVTLCGIVQYLNIFGVAIGYTIASAISMMAIKRSNCFHKSGGKDPCHMNSNPYMIAFGLVQILFSQIPDFDQLWWLSILAAVMSFTYSSAGLALGIAQVVVNGKVKGSLTGISIGAVTETQKIWRTFQALGDIAFAYSYSIILIEIQDTVKSPPSEEKTMKKATLVSVSVTTMFYMLCGCMGYAAFGDLSPGNLLTGFGFYNPYWLLDIANAAIVIHLIGAYQVYCQPLFAFIEKQASIQFPDSEFIAKDIKIPIPGFKPLRLNVFRLIWRTVFVIITTVISMLLPFFNDVVGLLGALGFWPLTVYFPVEMYIAQKKIPRWSTRWVCLQVFSLGCLVVSIAAAAGSIAGVLLDLKSYKPFRSEY
# Experiments:
# Assay in all cases: glycan array binding signal (z-score within array); higher = stronger binding
# Conditions in all cases: glycan notation: IUPAC condensed, linker removed
# [1] = molecular target: Neu5Ac(a2-3)Gal(b1-4)GlcNAc(b1-3)[Neu5Ac(a2-3)Gal(b1-4)GlcNAc(b1-6)]GalNAc
# Method in brief: (§1)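 The binding signal is a Z-score computed within each array and averaged over linkers. Arrays of the same protein sequence at different concentrations or buffers were also averaged together. Data originate from 3228 arrays in the Consortium for Functional Glycomics database, kept only where the protein sequence was available.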
# [2] = molecular target: Neu5Ac(a2-3)Gal(b1-4)GlcNAc(b1-6)GalNAc
# Method in brief: as §1
# [3] = molecular target: Neu5Ac(a2-3)Gal(b1-4)GlcNAc(b1-6)[Gal(b1-3)]GalNAc
# Method in brief: as §1
# [4] = molecular target: Neu5Ac(a2-3)Gal(b1-4)GlcNAc(b1-6)[Neu5Ac(a2-3)Gal(b1-3)]GalNAc
# Method in brief: as §1
# [5] = molecular target: Neu5Ac(a2-3)Gal(b1-4)GlcNAc6S
# Method in brief: as §1
# [6] = molecular target: Neu5Ac(a2-3)Gal(b1-4)[Fuc(a1-3)]GlcNAc
# Method in brief: as §1
# [7] = molecular target: Neu5Ac(a2-3)Gal(b1-4)[Fuc(a1-3)]GlcNAc(b1-2)Man
# Method in brief: as §1
# [8] = molecular target: Neu5Ac(a2-3)Gal(b1-4)[Fuc(a1-3)]GlcNAc(b1-3)Gal
# Method in brief: as §1
# [9] = molecular target: Neu5Ac(a2-3)Gal(b1-4)[Fuc(a1-3)]GlcNAc(b1-3)Gal(b1-4)GlcNAc
# Method in brief: as §1
# [10] = molecular target: Neu5Ac(a2-3)Gal(b1-4)[Fuc(a1-3)]GlcNAc(b1-3)Gal(b1-4)[Fuc(a1-3)]GlcNAc(b1-3)Gal(b1-4)[Fuc(a1-3)]GlcNAc
# Method in brief: as §1
# [11] = molecular target: Neu5Ac(a2-3)Gal(b1-4)[Fuc(a1-3)]GlcNAc(b1-3)GalNAc
# Method in brief: as §1
# [12] = molecular target: Neu5Ac(a2-3)Gal(b1-4)[Fuc(a1-3)]GlcNAc(b1-6)[Gal(b1-3)]GalNAc
# Method in brief: as §1
# [13] = molecular target: Neu5Ac(a2-3)Gal(b1-4)[Fuc(a1-3)]GlcNAc(b1-6)[Neu5Ac(a2-3)Gal(b1-3)]GalNAc
# Method in brief: as §1
# [14] = molecular target: Neu5Ac(a2-3)Gal(b1-4)[Fuc(a1-3)]GlcNAc6S
# Method in brief: as §1
# [15] = molecular target: Neu5Ac(a2-3)Gal6S(b1-4)GlcNAc
# Method in brief: as §1
# [16] = molecular target: Neu5Ac(a2-3)Gal6S(b1-4)[Fuc(a1-3)]GlcNAc
# Method in brief: as §1
# [17] = molecular target: Neu5Ac(a2-3)GalNAc
# Method in brief: as §1
# [18] = molecular target: Neu5Ac(a2-3)GalNAc(b1-4)GlcNAc
# Method in brief: as §1
# [19] = molecular target: Neu5Ac(a2-3)[GalNAc(b1-4)]Gal(b1-4)Glc
# Method in brief: as §1
# [20] = molecular target: Neu5Ac(a2-3)[GalNAc(b1-4)]Gal(b1-4)GlcNAc
# Method in brief: as §1
# [21] = molecular target: Neu5Ac(a2-3)[GalNAc(b1-4)]Gal(b1-4)GlcNAc(b1-3)GalNAc
# Method in brief: as §1
# [22] = molecular target: Neu5Ac(a2-3)[Neu5Ac(a2-6)]GalNAc
# Method in brief: as §1
# [23] = molecular target: Neu5Ac(a2-6)Gal
# Method in brief: as §1
# [24] = molecular target: Neu5Ac(a2-6)Gal(b1-3)GlcNAc(b1-3)[Gal(b1-4)GlcNAc(b1-6)]Gal(b1-4)Glc
# Method in brief: as §1
# [25] = molecular target: Neu5Ac(a2-6)Gal(b1-4)Glc
# Method in brief: as §1
# [26] = molecular target: Neu5Ac(a2-6)Gal(b1-4)GlcNAc
# Method in brief: as §1
# [27] = molecular target: Neu5Ac(a2-6)Gal(b1-4)GlcNAc(b1-2)Man
# Method in brief: as §1
# [28] = molecular target: Neu5Ac(a2-6)Gal(b1-4)GlcNAc(b1-2)Man(a1-3)Man(b1-4)GlcNAc(b1-4)GlcNAc
# Method in brief: as §1
# [29] = molecular target: Neu5Ac(a2-6)Gal(b1-4)GlcNAc(b1-2)Man(a1-3)[Gal(b1-4)GlcNAc(b1-2)Man(a1-6)]Man(b1-4)GlcNAc(b1-4)GlcNAc
# Method in brief: as §1
# [30] = molecular target: Neu5Ac(a2-6)Gal(b1-4)GlcNAc(b1-2)Man(a1-3)[GlcNAc(b1-2)Man(a1-6)]Man(b1-4)GlcNAc(b1-4)GlcNAc
# Method in brief: as §1
# [31] = molecular target: Neu5Ac(a2-6)Gal(b1-4)GlcNAc(b1-2)Man(a1-3)[GlcNAc(b1-4)][Neu5Ac(a2-6)Gal(b1-4)GlcNAc(b1-2)Man(a1-6)]Man(b1-4)GlcNAc(b1-4)GlcNAc
# Method in brief: as §1
binder,measurement,setting,value
B1,glycan array binding signal (z-score),[1],-0.779
same,glycan array binding signal (z-score),[2],0.228
same,glycan array binding signal (z-score),[3],1.54
same,glycan array binding signal (z-score),[4],-0.772
same,glycan array binding signal (z-score),[5],-0.786
same,glycan array binding signal (z-score),[6],-0.134
same,glycan array binding signal (z-score),[7],-0.386
same,glycan array binding signal (z-score),[8],-0.719
same,glycan array binding signal (z-score),[9],-0.19
same,glycan array binding signal (z-score),[10],-0.4
same,glycan array binding signal (z-score),[11],2.48
same,glycan array binding signal (z-score),[12],-0.175
same,glycan array binding signal (z-score),[13],-0.285
same,glycan array binding signal (z-score),[14],-0.6
same,glycan array binding signal (z-score),[15],0
same,glycan array binding signal (z-score),[16],-0.844
same,glycan array binding signal (z-score),[17],0.674
same,glycan array binding signal (z-score),[18],0.486
same,glycan array binding signal (z-score),[19],-0.752
same,glycan array binding signal (z-score),[20],-0.431
same,glycan array binding signal (z-score),[21],-0.317
same,glycan array binding signal (z-score),[22],1.61
same,glycan array binding signal (z-score),[23],2.3
same,glycan array binding signal (z-score),[24],-0.985
same,glycan array binding signal (z-score),[25],0.059
same,glycan array binding signal (z-score),[26],-0.582
same,glycan array binding signal (z-score),[27],1.03
same,glycan array binding signal (z-score),[28],-0.792
same,glycan array binding signal (z-score),[29],-0.735
same,glycan array binding signal (z-score),[30],-0.477
same,glycan array binding signal (z-score),[31],0.883

# Two entries drawn at random from those above:
binder,measurement,setting,value
B1,glycan array binding signal (z-score),[5],-0.786
same,glycan array binding signal (z-score),[29],-0.735
